# Reference: PubChem BioAssay AID1347076 (National Center for Advancing Translational Sciences (NCATS), 2019)
# Out of some 400,000 compounds screened, about 13,000 (3.2%) were called active. The inconclusive results got no clear call from the source; some entries with a clear call stand among them for comparison. The call rests on the fitted dose curve; in most records, active means well fitted cell-killing curve with a large enough effect; inconclusive means small, poorly fitted or top-dose-only effect, or effect the other way; inactive means flat fitted curve, though single readings scatter. A potency beside an inconclusive call is a rough fit, not a confirmed value.
# Assay: qHTS assay for MDR1-selective chemotherapeutics: Primary screen using the drug-selected MDR subline cells KB-V1; further: nearly all actives have a fitted effect of over 60% in size
# Settings: KB-V1 MDR cells viability, CellTiter-Glo, 72 h; activity change, negative = cytotoxicity: at 46.1 µM (top of the series)
# Outline: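 KB-V1, DMEM (no phenol red) + 10% FBS; cpd pin-transferred, titration series; 72 h, 37 degrees C; CellTiter-Glo, luminescence. Data normalized, curve-fit.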
# On the % scale 0 is the no-effect control and ±100 the full control effect; potency means the concentration at half of the fitted maximal effect.
Structure (SMILES),Potency,"activity change, negative = cytotoxicity"
Cc1ccc(C)c(OCCC(=O)Nc2ccc3c(c2)OCO3)c1,"inconclusive: 29.1 µM [cytotoxic, single point]",
CCc1ccc(NC(=O)c2cc3c(C)nc4ccccc4c3o2)cc1,"inconclusive: 7.31 µM [cytotoxic, partial curve]",
N#CC1=C2SCN(C3CCCCC3)CN2C(=O)CC1c1ccc(F)cc1 (configuration not stated),"inconclusive: 13 µM [rising, partial curve]",
O=C(Cc1cccs1)Nc1cc(SCCO)cc([N+](=O)[O-])c1,"inconclusive: 29.1 µM [cytotoxic, partial curve, poor fit]",
N#Cc1c(NC(=O)CSc2ncc(-c3ccccc3)n2CC2CCCO2)sc2c1CCCC2 (configuration not stated),active: 3.26 µM,
O=C(NCc1ccc(OC(F)(F)F)cc1)C1CC2Cn3c(nc4ccccc43)C2N1c1ccccc1 (configuration not stated),"inconclusive: 0.0046 µM [rising, full curve, poor fit]",
O=S1(=O)CCOC[C@H](CC2CCCCC2)N1Cc1cccc(Cl)c1,"inconclusive: 29.1 µM [cytotoxic, single point]",
CCC1=C(OC(=O)N(CC)CC)N2C(=O)OC(=NCC3CC3)[C@]2(C)[C@H]2C1=CC[C@H]1C(=O)N(C)C(=O)[C@H]12,"inconclusive: 20.6 µM [rising, partial curve, poor fit]",
Cc1cc(C)n(CC(O)COc2ccc(C(C)C)c(C)c2)n1 (configuration not stated),"inconclusive: 20.6 µM [cytotoxic, single point]",
CNC(=S)Nc1ccc(-c2nc3ccc(C)cc3s2)cc1,,inactive: -20.6%
COc1ccccc1C(=O)Nc1ccc2c(c1)nc1n2CCN(C2CCCCC2)C1,"inconclusive: 14.6 µM [rising, single point]",
O=C(Cn1c(=O)oc2cc(S(=O)(=O)NCc3ccccc3)ccc21)N(CCO)Cc1ccccc1,,inactive: 2.14%
Cn1c(SCC(=O)N2CCOCC2)nc2sc3c(c2c1=O)CCCC3,"inconclusive: 8.2 µM [cytotoxic, partial curve, poor fit]",
CC1=C(C(=O)OCC2CCCO2)C(c2ccsc2)C2=C(CC(C)(C)CC2=O)N1 (configuration not stated),"inconclusive: 18.4 µM [cytotoxic, partial curve, poor fit]",
O=C(COC(=O)c1cncc(Br)c1)NC1CCCCCC1,"inconclusive: 16.4 µM [rising, partial curve, poor fit]",
O=C(CNCc1ccc(F)cc1)Nc1cc(S(=O)(=O)N2CCOCC2)ccc1Cl,,inactive: 0%
COc1ccccc1Cc1c(C2CCCCC2)nc2c3ccccc3ccn12,"inconclusive: 9.2 µM [cytotoxic, partial curve]",
COc1ccc(OC)c(NC(=O)c2nc(SCc3ccccc3F)ncc2Cl)c1,,inactive: 1.63%
COc1cccc(CNC(=O)CCC2CCCN(C(=O)c3cc4ccccc4o3)C2)c1 (configuration not stated),,inactive: -25.2%
COCCN1C(=O)/C(=C/c2ccc(Oc3ccc([N+](=O)[O-])cn3)c(OC)c2)SC1=Nc1ccccc1,"inconclusive: 2.06 µM [cytotoxic, full curve]",
CN(C)S(=O)(=O)c1cccc(NC(=O)CCSc2ccc(Cl)cc2)c1,active: 11.6 µM,

# Part of the list above in order of number of heavy atoms, low to high.
Structure (SMILES),Potency,"activity change, negative = cytotoxicity"
CNC(=S)Nc1ccc(-c2nc3ccc(C)cc3s2)cc1,,inactive: -20.6%
O=C(Cc1cccs1)Nc1cc(SCCO)cc([N+](=O)[O-])c1,"inconclusive: 29.1 µM [cytotoxic, partial curve, poor fit]",
Cc1ccc(C)c(OCCC(=O)Nc2ccc3c(c2)OCO3)c1,"inconclusive: 29.1 µM [cytotoxic, single point]",
O=S1(=O)CCOC[C@H](CC2CCCCC2)N1Cc1cccc(Cl)c1,"inconclusive: 29.1 µM [cytotoxic, single point]",
Cn1c(SCC(=O)N2CCOCC2)nc2sc3c(c2c1=O)CCCC3,"inconclusive: 8.2 µM [cytotoxic, partial curve, poor fit]",
CC1=C(C(=O)OCC2CCCO2)C(c2ccsc2)C2=C(CC(C)(C)CC2=O)N1 (configuration not stated),"inconclusive: 18.4 µM [cytotoxic, partial curve, poor fit]",
COc1ccc(OC)c(NC(=O)c2nc(SCc3ccccc3F)ncc2Cl)c1,,inactive: 1.63%
N#Cc1c(NC(=O)CSc2ncc(-c3ccccc3)n2CC2CCCO2)sc2c1CCCC2 (configuration not stated),active: 3.26 µM,
CCC1=C(OC(=O)N(CC)CC)N2C(=O)OC(=NCC3CC3)[C@]2(C)[C@H]2C1=CC[C@H]1C(=O)N(C)C(=O)[C@H]12,"inconclusive: 20.6 µM [rising, partial curve, poor fit]",

# Next structures

Structure (SMILES),Potency,"activity change, negative = cytotoxicity"
COc1cccc(NC(=O)C2CCCN2S(=O)(=O)c2ccc3c(c2)n(C)c(=O)c(=O)n3C)c1 (configuration not stated),"inconclusive: 18.4 µM [rising, single point]",
COc1ccc2c(=O)cc(-c3ccccc3F)oc2c1,"inconclusive: 18.4 µM [cytotoxic, single point]",
CC(=O)O[C@H]1C(=O)[C@]2(C)[C@H]([C@H](OC(=O)c3ccccc3)[C@]3(O)C[C@H](OC(=O)[C@H](O)[C@@H](NC(=O)c4ccccc4)c4ccccc4)C(C)=C1C3(C)C)[C@]1(OC(C)=O)CO[C@@H]1C[C@@H]2O,active: 18.4 µM,
CCOC(=O)N1CCC(NC(=O)CCC(=O)N2CCOc3ccc(Cl)cc32)CC1,"inconclusive: 29.1 µM [cytotoxic, partial curve, poor fit]",
CCOc1ccccc1N1CCN(CC(=O)NC(=O)NCc2ccco2)CC1,"inconclusive: 3.26 µM [cytotoxic, partial curve]",
Cc1cc(=O)oc2cc(NC(=O)CCCC(=O)O)ccc12,,inconclusive: -48.6%
O[C@@H]1CN(Cc2cccs2)[C@@H](c2ccc(Cl)cc2)C[C@H]1n1cc(-c2ccc(F)cc2)nn1,"inconclusive: 29.1 µM [cytotoxic, single point]",
COc1ccc(CN(C(=O)c2ccc(-c3ccccc3)[nH]2)C(C(=O)NCC2CCCO2)c2ccc(C)o2)cc1 (configuration not stated),"inconclusive: 23.1 µM [cytotoxic, partial curve, poor fit]",
Cc1cccc(Nc2nc(-c3ccccc3)cs2)n1,,inactive: 3.01%
CCOc1ccc(NS(=O)(=O)c2ccc3c(c2)N(C(C)=O)CC3)cc1,"inconclusive: 3.66 µM [cytotoxic, full curve]",
COc1ccccc1NS(=O)(=O)c1ccc(NC(=O)N2CCCCC2)cc1,,inactive: -12.4%
O=C(Cc1ccc(NS(=O)(=O)c2ccc(F)cc2)cc1)NCc1ccccc1,"inconclusive: 20.6 µM [cytotoxic, single point]",
CCCCCc1c(-c2ccc(OC)cc2)ncn1CCc1ccccc1OC,active: 10.3 µM,
O=C(COC(=O)CNC(=O)C1CCCCC1)NC1CCCC1,"inconclusive: 20.6 µM [rising, single point]",
O=C(c1cnn2c(C(F)(F)F)cc(-c3ccc4c(c3)OCO4)nc12)N1CCCC1,,inactive: -27.3%
CCOc1ccc(C(=O)Nc2cc(C)ccn2)cc1,active: 13 µM,
COC1=C(C)C(O)=C(C(=O)/C=C/c2ccccc2)C(=O)C1(C)C,"inconclusive: 29.1 µM [cytotoxic, single point]",
Cc1ccc(NC(=O)Cc2noc3ccccc23)c(C)c1,,inactive: 3.93%
COc1ccc(OC)c(NC(=O)[C@H](Cc2ccccc2)N2Cc3ccccc3C2=O)c1,,inactive: -20.1%
COc1ccc(CCNC(=O)C2CCN(S(=O)(=O)c3ccc4nc5c(c(C(=O)O)c4c3)CCCC5)CC2)cc1OC,"inconclusive: 16.4 µM [rising, partial curve, poor fit]",
O=C(CC1C(=O)N(c2ccccc2)C(=O)N1CCc1cccs1)Nc1ccc(Cl)cc1 (configuration not stated),,inactive: -10.4%
